In PMC7814060:
No constants are given. Whether binding was seen depends on the method and setting. In cells and extracts the contact can be indirect.

The chains behind the UniProt entries cited, without tags or fusion partners.
UniProt O94953: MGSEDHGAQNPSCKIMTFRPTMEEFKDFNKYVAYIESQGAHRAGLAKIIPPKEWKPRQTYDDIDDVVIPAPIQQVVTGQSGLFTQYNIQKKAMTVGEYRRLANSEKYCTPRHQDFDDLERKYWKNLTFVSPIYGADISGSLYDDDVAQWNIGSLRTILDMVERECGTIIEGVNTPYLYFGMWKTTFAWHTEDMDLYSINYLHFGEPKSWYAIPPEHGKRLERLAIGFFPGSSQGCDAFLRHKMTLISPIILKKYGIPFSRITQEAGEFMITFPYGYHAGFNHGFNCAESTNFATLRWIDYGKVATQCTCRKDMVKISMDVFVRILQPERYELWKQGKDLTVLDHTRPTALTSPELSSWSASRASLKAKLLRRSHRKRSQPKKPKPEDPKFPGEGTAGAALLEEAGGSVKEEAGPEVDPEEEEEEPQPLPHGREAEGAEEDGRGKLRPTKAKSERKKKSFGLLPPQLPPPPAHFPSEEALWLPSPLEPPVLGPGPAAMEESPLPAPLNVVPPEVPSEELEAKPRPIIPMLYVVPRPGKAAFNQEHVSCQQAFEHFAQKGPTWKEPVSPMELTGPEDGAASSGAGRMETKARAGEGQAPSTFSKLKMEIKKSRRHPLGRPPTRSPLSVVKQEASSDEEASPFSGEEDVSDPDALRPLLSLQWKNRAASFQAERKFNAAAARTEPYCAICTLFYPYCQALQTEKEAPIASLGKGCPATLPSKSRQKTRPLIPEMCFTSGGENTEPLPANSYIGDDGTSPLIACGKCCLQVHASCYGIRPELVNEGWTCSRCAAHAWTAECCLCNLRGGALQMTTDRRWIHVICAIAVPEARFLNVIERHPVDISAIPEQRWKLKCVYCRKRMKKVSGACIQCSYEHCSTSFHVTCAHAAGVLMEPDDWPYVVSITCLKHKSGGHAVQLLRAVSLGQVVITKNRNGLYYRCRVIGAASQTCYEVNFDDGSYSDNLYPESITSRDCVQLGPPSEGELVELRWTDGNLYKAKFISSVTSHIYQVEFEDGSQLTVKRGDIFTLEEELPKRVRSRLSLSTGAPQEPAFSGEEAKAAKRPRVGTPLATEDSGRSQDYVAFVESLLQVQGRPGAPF

Target: p53 (wild-type, endogenous in U87 glioblastoma cells) (human (endogenous in U87)) (UniProt P04637)
Assay: co-IP; endogenous proteins; lysates of U87, LN215 and SNB19 cells incubated with anti-p53 monoclonal antibody (sc-126) at 4 °C overnight, protein A/G agarose 3 h, immunoblot

binding: no binding
Substance: KDM4B (endogenous in glioblastoma cells) (from UniProt O94953 1-1096)
